Record: PubChem BioAssay AID1053208 (Peter MacCallum Cancer Centre, 2014)

Aim: 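Find knock-downs that sensitise mouse osteosarcoma cells to doxorubicin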 (primary screen)
Cell system: mouse osteosarcoma cells, early-passage culture from an engineered mouse model of fibroblastic bone tumour
Knock-down reagent: siRNA pool against mouse genes, 40 nM
Duration: about 120 h (48 h before drug, then 72 h with drug)
Treatment: doxorubicin 100 nM for 72 h, roughly 30-40% inhibitory dose
Read-out: 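Viability read as ATP luminescence after 72 h of 100 nM doxorubicin or none, duplicate wells averaged, scaled to non-targeting siRNA, then expressed as robust z-scores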
Scale: viability z-score with doxorubicin and doxorubicin viability vs non-targeting: higher = more viable cells under doxorubicin; viability z-score without drug: higher = more viable cells with knock-down alone; z-score of drug to no-drug ratio: higher = less drug sensitisation by knock-down
Active means: 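a pool counts as active when its viability z-score with doxorubicin is -2 or below and its z-score without drug lies between -2 and 2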
The whole screen tested about 17,000 reagents; shown is an unselected part. 788 of them (4.7%) were called active. 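Calls rest on z-score classes alone; an extra cut-off of viability at most 70% of control was not applied to them.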

Target gene	combined z-score class	viability z-score with doxorubicin	viability z-score without drug	z-score of drug to no-drug ratio	doxorubicin viability vs non-targeting	Call
Trp53	no change with or without drug	-0.34	0.17	-0.34	0.91	inactive
Hamp2	no change with or without drug	1.57	0.17	1.69	1.08	inactive
Cmtm2a	no change with or without drug	-1.12	-1.85	0.22	0.84	inactive
Atp6v1g3	no change with or without drug	1.12	1.85	0	1.04	inactive
Star	no change with or without drug	0	0.84	-0.45	0.94	inactive
Plaur	high cell count with doxorubicin only	2.02	1.85	0.9	1.12	inactive
Bhlhe41	low cell count without drug only	0.79	-2.19	2.81	1.01	inactive
Mlycd	no change with or without drug	1.91	0.51	1.69	1.11	inactive
Rbpjl	no change with or without drug	0	-0.34	0.34	0.94	inactive
AI854703	no change with or without drug	-0.45	0	-0.34	0.9	inactive
Gpn2	no change with or without drug	-0.9	1.18	-1.57	0.86	inactive
Lars2	no change with or without drug	0	0.34	-0.11	0.94	inactive
Hp	no change with or without drug	0.9	-0.17	1.24	1.02	inactive
Sowaha	no change with or without drug	-0.9	-0.51	-0.56	0.86	inactive
Rhoj	no change with or without drug	1.12	1.52	0.22	1.04	inactive
C1qa	no change with or without drug	-0.11	0.34	-0.22	0.93	inactive
Crtam	no change with or without drug	0	-0.17	0.22	0.94	inactive
Rpsa	no change with or without drug	-1.35	0.17	-1.46	0.82	inactive
Cyp2b9	no change with or without drug	1.12	0.84	0.67	1.04	inactive
Ly6c1	no change with or without drug	0.56	-0.51	1.12	0.99	inactive
Ubqln4	no change with or without drug	0.34	0.17	0.34	0.97	inactive
4833414E09Rik	no change with or without drug	-0.79	-0.51	-0.34	0.87	inactive
Adpgk	no change with or without drug	0.9	0.17	0.9	1.02	inactive
Xrcc1	no change with or without drug	-1.12	-0.17	-1.01	0.84	inactive
Smarcc2	no change with or without drug	0.45	0.84	0	0.98	inactive
Dok7	no change with or without drug	0.34	0.84	-0.11	0.97	inactive
Mthfd1	no change with or without drug	0.56	-1.18	1.57	0.99	inactive
Zfp609	no change with or without drug	1.12	-0.17	1.46	1.04	inactive
Mapk11	no change with or without drug	0	-1.35	1.12	0.94	inactive
Or8d2	low cell count with and without drug	-2.25	-2.87	-0.34	0.74	inactive
Hnf4a	no change with or without drug	0.79	0.17	0.79	1.01	inactive
Rnf103	no change with or without drug	0.45	0.51	0.22	0.98	inactive
Il13ra1	high cell count with doxorubicin only	2.47	1.85	1.24	1.16	inactive
Galm	no change with or without drug	1.01	1.69	0	1.03	inactive
Zfp830	no change with or without drug	1.69	1.01	1.12	1.09	inactive
Dnmt1	no change with or without drug	0.22	0.17	0.22	0.96	inactive
Bnip5	high cell count without drug only	-0.45	3.71	-2.36	0.9	inactive
Fgfr2	no change with or without drug	-0.45	-1.01	0.34	0.9	inactive
4930449I24Rik	high without drug; low with doxorubicin	-2.02	2.19	-3.15	0.76	inactive
CPEB4	no change with or without drug	-1.46	-0.17	-1.35	0.81	inactive
Slx4	no change with or without drug	0.45	-0.84	1.24	0.98	inactive
Itfg1	no change with or without drug	-0.67	0.67	-1.01	0.88	inactive
Sec11a	no change with or without drug	-1.35	0.17	-1.46	0.82	inactive
Or52u1	no change with or without drug	0.11	-0.17	0.34	0.95	inactive
Tmem177	no change with or without drug	1.35	1.85	0.22	1.06	inactive
Aspm	no change with or without drug	0.34	0.67	0	0.97	inactive
Mansc1	no change with or without drug	1.35	1.01	0.79	1.06	inactive
Edf1	no change with or without drug	0.9	0.84	0.45	1.02	inactive
Zcchc8	no change with or without drug	1.01	1.35	0.22	1.03	inactive
Tmem41b	no change with or without drug	0.22	-0.51	0.67	0.96	inactive
Taf6l	no change with or without drug	-0.22	0.67	-0.56	0.92	inactive
Sval1	no change with or without drug	-0.45	0	-0.34	0.9	inactive
Tnfaip2	no change with or without drug	-0.22	-0.51	0.22	0.92	inactive
2310067E19Rik	no change with or without drug	0.45	-0.17	0.67	0.98	inactive
Lyzl4	high cell count without drug only	0.45	2.19	-0.79	0.98	inactive
Mybpc3	no change with or without drug	0.67	1.18	0	1	inactive
Sumf1	no change with or without drug	0.11	0.84	-0.34	0.95	inactive
Ms4a2	no change with or without drug	1.57	1.35	0.79	1.08	inactive
Elovl7	no change with or without drug	0.22	0.67	-0.11	0.96	inactive
Ctsc	no change with or without drug	-0.45	-1.35	0.56	0.9	inactive
Rbbp6	no change with or without drug	-0.45	-0.51	0	0.9	inactive
Pawr	no change with or without drug	-0.67	1.18	-1.35	0.88	inactive
Nr6a1	no change with or without drug	0.45	-0.17	0.67	0.98	inactive
